Assay results reported in paper PMC11999059.
These are yes or no findings as the source states them, for the method shown. Binding seen in cells or lysates may run through a third protein. Some results given as binding are weak or reduced against the parent protein; the word gives no strength.

Protein sequences, listed by entry. Tags and fused reporters are not part of them.
UniProt P84022: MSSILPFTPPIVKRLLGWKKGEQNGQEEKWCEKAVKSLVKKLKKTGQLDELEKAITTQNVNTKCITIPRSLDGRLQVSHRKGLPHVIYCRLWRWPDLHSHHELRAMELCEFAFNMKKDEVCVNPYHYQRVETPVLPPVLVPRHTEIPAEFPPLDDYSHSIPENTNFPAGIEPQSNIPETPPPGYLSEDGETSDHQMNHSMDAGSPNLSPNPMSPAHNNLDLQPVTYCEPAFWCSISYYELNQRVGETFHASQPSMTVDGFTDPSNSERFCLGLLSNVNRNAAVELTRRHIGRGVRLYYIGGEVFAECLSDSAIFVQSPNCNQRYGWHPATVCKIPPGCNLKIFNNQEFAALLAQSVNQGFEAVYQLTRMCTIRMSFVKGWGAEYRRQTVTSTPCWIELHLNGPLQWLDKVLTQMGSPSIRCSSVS

Target: full-length p53 (FLp53), endogenous (human (endogenous in LX-2)) (UniProt P04637)
Assay: co-IP; untransfected LX-2 cells (endogenous proteins), vehicle or 5 ng/mL TGFβ1 for 24 h; lysate incubated with antibody against FLp53 or control IgG, Protein A/G magnetic beads, western blot for Smad3, p-Smad3, FLp53 and Δ40p53α

binding: binds
Substance: phosphorylated Smad3 (p-Smad3), endogenous (from UniProt P84022 1-425)
